Measured values reported in publication PMC2762042.
For at least one entry, the source does not settle the construct or the ends of the probe. For some of these results: No signal at the amounts used counts as a negative. For some of these results: A weaker result is weaker than the reference pair of the same experiment. For some of these results: At least one verdict rests on a figure or table, not on a statement of the authors. For some of these results: At least one result comes from cells or an extract, where the contact may be indirect. For some of these results: Protein sequences can lack the tags named with them.

Sequences of proteins named here, by UniProt entry; tags and fusion partners are left off. Residues count along the entry.
UniProt O75526, 8-86: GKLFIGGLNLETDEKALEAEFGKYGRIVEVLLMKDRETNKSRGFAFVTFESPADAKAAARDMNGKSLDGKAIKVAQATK
UniProt P0DJD3, 8-85: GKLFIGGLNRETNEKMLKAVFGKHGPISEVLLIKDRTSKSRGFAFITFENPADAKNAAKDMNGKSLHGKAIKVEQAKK
UniProt P38159, 8-86: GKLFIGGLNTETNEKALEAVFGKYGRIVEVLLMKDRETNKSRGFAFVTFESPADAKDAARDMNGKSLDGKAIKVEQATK

Legend:
[1] = target: hnRNP G-T RRM (Homo sapiens) (UniProt O75526); assay: EMSA; conditions: EMSA with radio-labelled T7 transcripts and 30 or 100 ng RRM protein, recombinant protein, probe letters rebuilt from the primers and the genome, part of a longer molecule
[2] = target: RBMY RRM (Homo sapiens?) (UniProt P0DJD3); assay: EMSA; conditions: EMSA with radio-labelled T7 transcripts and 30 or 100 ng RRM protein, recombinant protein, probe letters rebuilt from the primers and the genome, part of a longer molecule; for binding result: much weaker than S1A, label: radio-labelled
[3] = target: hnRNP G RRM (Homo sapiens) (UniProt P38159); assay: EMSA; conditions: EMSA with radio-labelled T7 transcripts and 30 or 100 ng RRM protein, recombinant protein, probe letters rebuilt from the primers and the genome, part of a longer molecule
[4] = target: T1, Tra2beta (transfected) (UniProt P62995); assay: UV crosslinking; conditions: protein in a lysate after overexpression
T1 sequence (looked up, limits assumed): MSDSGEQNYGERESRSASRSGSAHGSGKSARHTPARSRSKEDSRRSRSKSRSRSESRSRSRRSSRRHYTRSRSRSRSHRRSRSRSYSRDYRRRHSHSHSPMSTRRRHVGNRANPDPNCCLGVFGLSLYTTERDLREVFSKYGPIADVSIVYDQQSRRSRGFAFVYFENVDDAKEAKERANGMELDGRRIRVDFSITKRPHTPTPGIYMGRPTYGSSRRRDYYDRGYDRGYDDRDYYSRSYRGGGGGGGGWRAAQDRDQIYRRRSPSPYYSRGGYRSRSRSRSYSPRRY

## ACCAAACAAGGACCUCAGGAAGCCUUACUGUGAAUGUCAUGUAUAACUAUGAUUUCUGCCUUUGAAAAGUUCUGGUCCA [F1]
[1]
  Kd: 3.9 nM
[2]
  Kd: 3.3 nM
[3]
  binding result: no binding
[4]; very weak, probe letters rebuilt from the primers and the genome, part of a longer molecule
  binding result: binds more weakly

## AGGUAUUGGGCUUUGGCUGAGGGCUUUUUGUUGUUGUUGUUGUUGUUUUUUUGUUUUUUGUUUUUUGUUUUUUUUUUGAGACAGGGUUUCACU [F4]
[1]; label: radio-labelled
  binding result: binds
[2]
  binding result: binds more weakly
[3]; label: radio-labelled
  binding result: no binding

## GAAAAGUUCUGGUCCAAUGGAACGAUGAGUCGGUGCUUAUUUUUUAUCCUGUAGGAGAAAAAGAAUAAAAGUGACACACC [F2]
[2]
  binding result: binds more weakly
[3]; label: radio-labelled
  binding result: no binding

## GAAGAAGAAGAAGAAGAA [(GAA)6]
[4]
  binding result: binds
